Measurements reported in PubChem BioAssay AID1259308 (NCATS, 2017).

Purpose: 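Genes whose loss raises luciferase production in HEK293 cells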 (primary screen)
Cell system: human HEK293 embryonic kidney cells stably expressing firefly luciferase (HEK-CMV-Luc2-Hygro)
Reagent: single siRNA against human genes, 0.8 pmol siRNA per well
Time to read-out: 72 h
Measured: 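Reporter luminescence and viable-cell signal on separate replicate plates, given as percent of non-targeting control and median/MAD z-scores, plus per-cell luciferase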
Reading the numbers: total luciferase, z-score and total luciferase, % of control: higher = more reporter protein produced
Call rule: 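Active when the median/MAD z-score for overall luciferase is greater than 3; a gene was taken forward for validation with new siRNAs if at least two of its three siRNAs passed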
Meaning of the calls: active = raised luciferase; inactive = no rise
In all, the deposit lists about 59,000 reagents; below is a part drawn at random. Over the whole deposit, about 1,510 (2.6%) are marked active. 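Calls use total luciferase alone and ignore viability, so some active siRNAs may act by altering cell number.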 The numbers tell different reagents against one gene apart. Further read-outs or replicates are left out here.

SPRY1 #1 — total luciferase, z-score = 0.0182; total luciferase, % of control = 82.2; Call = inactive
SPRY1 #2 — total luciferase, z-score = -0.993; total luciferase, % of control = 62.1; Call = inactive
SPRY1 #3 — total luciferase, z-score = -0.323; total luciferase, % of control = 75.5; Call = inactive
GADD45GIP1 #1 — total luciferase, z-score = 0.342; total luciferase, % of control = 88.7; Call = inactive
GADD45GIP1 #2 — total luciferase, z-score = 0.333; total luciferase, % of control = 88.5; Call = inactive
GADD45GIP1 #3 — total luciferase, z-score = -1.41; total luciferase, % of control = 53.8; Call = inactive
ZNF18 #1 — total luciferase, z-score = 1.48; total luciferase, % of control = 111; Call = inactive
ZNF18 #2 — total luciferase, z-score = 0.344; total luciferase, % of control = 88.7; Call = inactive
ZNF18 #3 — total luciferase, z-score = -0.498; total luciferase, % of control = 72; Call = inactive
SYT7 #1 — total luciferase, z-score = -0.397; total luciferase, % of control = 74; Call = inactive
SYT7 #2 — total luciferase, z-score = 2.02; total luciferase, % of control = 122; Call = inactive
SYT7 #3 — total luciferase, z-score = 1.07; total luciferase, % of control = 103; Call = inactive
NEK10 #1 — total luciferase, z-score = 0.122; total luciferase, % of control = 84.3; Call = inactive
NEK10 #2 — total luciferase, z-score = -0.337; total luciferase, % of control = 75.2; Call = inactive
NEK10 #3 — total luciferase, z-score = 0.334; total luciferase, % of control = 88.5; Call = inactive
SGSH #1 — total luciferase, z-score = -0.282; total luciferase, % of control = 76.3; Call = inactive
SGSH #2 — total luciferase, z-score = 1.41; total luciferase, % of control = 110; Call = inactive
SGSH #3 — total luciferase, z-score = -0.545; total luciferase, % of control = 71.1; Call = inactive
PCDHA9 #1 — total luciferase, z-score = 0.217; total luciferase, % of control = 86.2; Call = inactive
PCDHA9 #2 — total luciferase, z-score = 0.748; total luciferase, % of control = 96.8; Call = inactive
PCDHA9 #3 — total luciferase, z-score = -1.71; total luciferase, % of control = 47.9; Call = inactive

Reformatted: 3 of the entries above
{"gene":"SGSH","reagent":1,"total luciferase, z-score":-0.282,"total luciferase, % of control":76.3,"Call":"inactive"}
{"gene":"SGSH","reagent":2,"total luciferase, z-score":1.41,"total luciferase, % of control":110,"Call":"inactive"}
{"gene":"SGSH","reagent":3,"total luciferase, z-score":-0.545,"total luciferase, % of control":71.1,"Call":"inactive"}
